# Experimental data: PubChem BioAssay AID1259308 (NCATS, 2017)
# Screen: 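Knock-downs that increase output of a recombinant reporter protein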 (primary screen)
# Cells: human HEK293 embryonic kidney cells stably expressing firefly luciferase (HEK-CMV-Luc2-Hygro)
# Reagents: single siRNA against human genes, 0.8 pmol siRNA per well
# Duration: 72 h
# Measured: 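Luciferase light (ONE-Glo) measured on one replicate plate set and viability (CellTiter-Glo) on the other, scaled to a negative control siRNA, with robust z-scores and luciferase per cell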
# Direction: total luciferase, z-score and total luciferase, % of control: higher = more reporter protein produced
# Hit rule: 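An siRNA counts as active if its total luciferase robust z-score exceeds 3; genes with two or more such siRNAs out of three were retested with fresh siRNAs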
# Calls: active = raised luciferase; inactive = no rise
# Here is a random part of about 59,000 reagents. About 1,510 of all reagents (2.6%) count as active. 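Calls use total luciferase alone and ignore viability, so some active siRNAs may act by altering cell number.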 The numbers tell different reagents against one gene apart. Further read-outs or replicates are left out here.
target gene,siRNA no.,"total luciferase, z-score","total luciferase, % of control",Call
SOWAHA,1,-0.623,69.5,inactive
SOWAHA,2,0.0417,82.7,inactive
SOWAHA,3,-0.266,76.6,inactive
MFAP3L,1,-1.81,45.9,inactive
MFAP3L,2,-1.22,57.7,inactive
MFAP3L,3,-1.98,42.4,inactive
LOC729218,1,0.629,94.4,inactive
LOC729218,2,-0.352,74.9,inactive
LOC729218,3,0.0815,83.5,inactive
LOC729218,4,0.694,95.7,inactive
LOC729218,5,0.234,86.5,inactive
LOC729218,6,-0.142,79.1,inactive
BOLA1,1,0.551,92.9,inactive
BOLA1,2,-0.112,79.7,inactive
BOLA1,3,0.324,88.3,inactive

Copied from the entries so far, 2 entries:
target gene,siRNA no.,"total luciferase, z-score","total luciferase, % of control",Call
MFAP3L,1,-1.81,45.9,inactive
MFAP3L,2,-1.22,57.7,inactive

The list goes on.
target gene,siRNA no.,"total luciferase, z-score","total luciferase, % of control",Call
GPR31,1,-2.67,28.7,inactive
GPR31,2,0.323,88.3,inactive
GPR31,3,-2.13,39.5,inactive
TRIM21,1,0.505,91.9,inactive
TRIM21,2,-0.214,77.6,inactive
TRIM21,3,-0.371,74.5,inactive
UBR2,1,0.091,83.7,inactive
UBR2,2,-0.0394,81.1,inactive
UBR2,3,0.546,92.8,inactive
